Data from US20140179780A1, “PHARMACEUTICAL COMPOSITION CONTAINING OLEANOLIC ACID ACETATE AS AN ACTIVE INGREDIENT FOR PREVENTING OR TREATING TLR- OR IL-6-MEDIATED DISEASES” (Korea Research Institute of Bioscience and Biotechnology, priority 2011, published 2014).
At least one structure is not confirmed: it was looked up by name or label, or the drawing left a doubt.

Experiments:
[1] = system: IL-6-induced STAT3 transcriptional activation; assay: IL-6 reactive STAT3 reporter gene (luciferase) assay in Hep3B cells; assay type: cell-based
Method: pStat3-Luc and pcDNA3.1(+) (Clontech laboratories, Palo Alto, Calif.) were transfected into Hep3B cells (ATCC HB-8064) using lipofectamine plus (Invitrogen, Carlsbad, Calif., USA) at the same time. 2 days later, the cells were treated with hygromycin (100 μg/ml) to obtain clones stably expressing luciferase. Luciferase analysis was performed to examine whether luciferase is stably expressed in the clones.
The transfected cells in the clones obtained in Example 5-1 were cultured in DMEM (GIBCO 119950965) under serum starvation, and the samples were treated for 1 hour as follows. 10 ng/ml IL-6 (R&D system, USA) was added thereto, followed by cultivation for 12 hours.
The cultured cells were washed with PBS and 50 μl of lysis buffer (luciferase assay system, promega, USA) was added thereto, followed by stirring for 20 minutes. 30-100 μl of luciferase substrate (luciferase assay system, promega, USA) was added to measure […] using a luminometer (EG&G BERTHOLD, USA) within 5 minutes (Tables 5 and 6).
In detail, the inhibitory effects of oleanolic acid or oleanolic acid acetate on STAT3 luciferase activity was measured in the same manner as in Example 5-2, except that oleanolic acid or oleanolic acid acetate was treated as a sample in an amount of 0.1, 1, 3, 6 or 10 μM, respectively and compared with each other (FIG. 14).

[2] = system: poly(I)-induced NFkB/AP-1 dependent SEAP activity (TLR7 signaling pathway); assay: Poly(I)-induced NFkB/AP-1-dependent SEAP activity in THP1-Blue-CD14 cells; assay type: cell-based, Human; settings: THP-1-blue cells
[3] = system: poly(I:C)-induced NFkB/AP-1 dependent SEAP activity (TLR3 signaling pathway); assay: Poly(I:C)-induced NFkB/AP-1-dependent SEAP activity in THP1-Blue-CD14 cells; assay type: cell-based, Human; settings: THP-1-blue cells

C[C@@H]1O[C@@H](OC[C@H]2O[C@@H](Oc3c(-c4ccc(O)c(O)c4)oc4cc(O)cc(O)c4c3=O)[C@H](O)[C@@H](O)[C@@H]2O)[C@H](O)[C@H](O)[C@H]1O [Rutin, rutin, reference compound]
Effect on STAT3 luciferase activity (in words) [1]: did not show the inhibitory effect
Effect on poly(I)-induced SEAP activity (in words) [2]: did not affect
Effect on poly(I:C)-induced SEAP activity (in words) [3]: did not affect
